According to article PMC4879557:
For at least one entry, the source does not settle the construct or the ends of the probe. For some assays here: A negative result means that nothing was seen under these conditions. For some assays here: The comparison behind a weaker result is the experiment's own reference, which may not be listed here. For some assays here: At least one verdict was read from the data and is not stated in words by the source.

Protein sequences, listed by entry. Tags and fused reporters are not part of them. Residues count along the entry.
UniProt P02754, 17-178: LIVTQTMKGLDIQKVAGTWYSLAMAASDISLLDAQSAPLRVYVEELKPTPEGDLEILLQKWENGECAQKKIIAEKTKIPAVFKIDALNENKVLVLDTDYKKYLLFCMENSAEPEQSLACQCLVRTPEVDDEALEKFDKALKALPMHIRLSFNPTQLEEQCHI

How the values were obtained:
[1] = target: lysozyme (hen (egg white)) (UniProt P00698); test: HPTLC-aptastaining; conditions: RP-8 and RP-18 plates; White wine mimicking buffer: 1.5 mM KCl, 14.5 mM K acetate, 3.5 mM Mg acetate, 1.5 mM Ca acetate, 1 mM NaH2PO4, 4 mM KH2PO4, 11.5% (v/v) ethanol, pH 3.1; native protein; label: 5' ATTO 550; single-stranded DNA
insulin [2] = test: HPTLC-aptastaining; conditions: White wine mimicking buffer: 1.5 mM KCl, 14.5 mM K acetate, 3.5 mM Mg acetate, 1.5 mM Ca acetate, 1 mM NaH2PO4, 4 mM KH2PO4, 11.5% (v/v) ethanol, pH 3.1, commercial protein, label: 5' ATTO 550, single-stranded DNA
beta-lactoglobulin [3] = target: beta-lactoglobulin (UniProt P02754); test: HPTLC-aptastaining; conditions: RP-8 and RP-18 plates, little cross-reactivity; White wine mimicking buffer: 1.5 mM KCl, 14.5 mM K acetate, 3.5 mM Mg acetate, 1.5 mM Ca acetate, 1 mM NaH2PO4, 4 mM KH2PO4, 11.5% (v/v) ethanol, pH 3.1; native protein; label: 5' ATTO 550; single-stranded DNA
[4] = target: lysozyme (hen (egg white)) (UniProt P00698); test: SPR; conditions: white wine mimicking buffer; White wine mimicking buffer: 1.5 mM KCl, 14.5 mM K acetate, 3.5 mM Mg acetate, 1.5 mM Ca acetate, 1 mM NaH2PO4, 4 mM KH2PO4, 11.5% (v/v) ethanol, pH 3.1; native protein; single-stranded DNA
insulin [5] = test: SPR; conditions: almost no affinity; White wine mimicking buffer: 1.5 mM KCl, 14.5 mM K acetate, 3.5 mM Mg acetate, 1.5 mM Ca acetate, 1 mM NaH2PO4, 4 mM KH2PO4, 11.5% (v/v) ethanol, pH 3.1; commercial protein; single-stranded DNA
beta-lactoglobulin [6] = target: beta-lactoglobulin (UniProt P02754); test: SPR; conditions: almost no affinity; White wine mimicking buffer: 1.5 mM KCl, 14.5 mM K acetate, 3.5 mM Mg acetate, 1.5 mM Ca acetate, 1 mM NaH2PO4, 4 mM KH2PO4, 11.5% (v/v) ethanol, pH 3.1; native protein; single-stranded DNA

Sequence	binding result [1]	binding result (insulin [2]; RP-8 and RP-18 plates, little cross-reactivity)	binding result (insulin [2]; RP-18W and silica gel plates)	binding result (beta-lactoglobulin [3])	Kd [4]	binding result (insulin [5])	binding result (beta-lactoglobulin [6])
CATCCGTCACACCTGCTCCCTGCTAGAATTTTTCATGATCTTGCTGTATTTCTATTATGGTGTTCGGTCCCGTATC [5'-ATTO 550-LysApt5]	binds	binds more weakly	no binding	binds more weakly			
CATCCGTCACACCTGCTCCCTGCTAGAATTTTTCATGATCTTGCTGTATTTCTATTATGGTGTTCGGTCCCGTATC [LysApt5]					17.9 nM	binds more weakly	binds more weakly
CATCCGTCACACCTGCTCTTGTTATTTTTTGTTGATGTAGGTTTGATGATGTATTTCCGGTGTTCGGTCCCGTATC [LysApt4]					21.7 nM		
